In patent publication US20100240581A1, “SELECTIVE PROTEASOME INHIBITORS FOR TREATING DIABETES” (The Trustees of Columbia University in the City of New York, priority 2006, published 2010):

Test system: male C57BL/Ks db/db mice
Assay: Body composition (Bruker NMR), food intake and liver in db/db mice
Format: in vivo, mouse
Conditions: dietary curcumin (3%)

Q: Which liver weight (db/db mice) does the source give for `COc1cc(/C=C/C(=O)CC(=O)/C=C/c2ccc(O)c(OC)c2)ccc1O` [curcumin] here?
A: The liver weight was “An increase in liver weight”.

Q: And the food intake (db/db mice vs control cohort)?
A: Its food intake is “ate less”.
